Results on one substance are retold here after publication PMC3639902.

Sequences of proteins named here, by UniProt entry; tags and fusion partners are left off. Residues count along the entry.
UniProt P56199, residues 1135-1179: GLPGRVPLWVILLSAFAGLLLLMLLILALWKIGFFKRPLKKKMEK
UniProt P05556, residues 717-798: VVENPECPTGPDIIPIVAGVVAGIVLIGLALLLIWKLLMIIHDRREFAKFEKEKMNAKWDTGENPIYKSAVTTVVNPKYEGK

These are yes or no findings as the source states them, for the method shown. Some results given as binding are weak or reduced against the parent protein; the word gives no strength.

The target of the test is integrin α1 transmembrane and cytoplasmic (TMC) domains, α1-TMC (G1135-K1179) (human) (UniProt P56199). Briefly: NMR titration; 1H-15N HSQC of 15N-labelled α1-TMC titrated with non-labelled β1-TMC in LDAO micelles; molar ratios α1/β1 1:0, 1:0.5, 1:1; 30°C; Varian 500 MHz; both purified.

Regarding “integrin β1 transmembrane and cytoplasmic (TMC) domains, β1-TMC (V717-K798) (from UniProt P05556 717-798) (domain or fragment)”, the binding entry is reported as “binds weakly”.
